## Results from one PubChem assay

The results are deposited in PubChem (AID1053133; Broad Institute, 2014).

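Plate-reader measure of the Venus reporter marking one vaccinia stage in infected cells (the cell line is not named here); read time unknown.
The test concentration is not given here.
Percent change in Venus reporter signal; lower (more negative) values mean stronger inhibition of that viral stage.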

Values are in %.
The controls that fix the scale are not given here.
Common to all entries: measured here: Venus reporter, other viral stage.
This is a side read-out of the assay, for part of the compounds, not drawn at random.

{"compound": "COc1ccc(CN(C)C[C@H]2OCCCC[C@H](C)Oc3ccc(NC(=O)Nc4ccc(F)cc4)cc3C(=O)N([C@H](C)CO)C[C@H]2C)cc1", "activity change (Venus) (%)": "-52.91"}
{"compound": "C[C@@H]1CN([C@@H](C)CO)S(=O)(=O)c2ccc(C#CC3CC3)cc2O[C@@H]1CN(C)Cc1ccncc1", "activity change (Venus) (%)": "-53.66"}
{"compound": "C[C@@H]1CCCCO[C@H](CN(C)Cc2ccccc2)[C@H](C)CN([C@H](C)CO)C(=O)c2cc(NC(=O)NC3CCCCC3)ccc2O1", "activity change (Venus) (%)": "-68.8"}
{"compound": "O=C(CC1CC1)N[C@@H]1C[C@@H]2O[C@@H](CO)CC[C@@H]2O[C@@H]1CCc1ccc(C#Cc2ccccc2)cc1", "activity change (Venus) (%)": "-65.11"}
{"compound": "C[C@H](CO)N1C[C@H](C)[C@H](CN(C)S(=O)(=O)c2cccc(F)c2)Oc2ncc(C#Cc3ccc(F)cc3)cc2C1=O", "activity change (Venus) (%)": "-43.05"}
{"compound": "COc1ccc(C#Cc2ccc([C@@H]3[C@H](CO)N4C(=O)CN(C(=O)c5ccc(F)cc5)C[C@@H]34)cc2)cc1", "activity change (Venus) (%)": "-80.58"}
{"compound": "C[C@@H]1CN([C@H](C)CO)S(=O)(=O)c2ccc(C#Cc3cccc(F)c3)cc2O[C@H]1CN(C)C(=O)NC1CCCCC1", "activity change (Venus) (%)": "-47.02"}
{"compound": "C[C@H](CO)N1C[C@H](C)[C@H](CN(C)Cc2ccc(Oc3ccccc3)cc2)Oc2c(NC(=O)Nc3ccccc3)cccc2C1=O", "activity change (Venus) (%)": "-33.71"}
{"compound": "C[C@@H]1CN([C@H](C)CO)S(=O)(=O)c2ccc(C3=CCCC3)cc2O[C@H]1CN(C)CC1CCOCC1", "activity change (Venus) (%)": "-32.17"}
{"compound": "COc1ccc(S(=O)(=O)Nc2ccc3c(c2)C(=O)N([C@@H](C)CO)C[C@H](C)[C@H](CN(C)C(=O)c2ccccc2)OCCCC[C@H](C)O3)cc1", "activity change (Venus) (%)": "-29.9"}
{"compound": "COc1ccc(C#Cc2ccc([C@@H]3[C@H](CO)N4CCCCN(C(=O)Nc5ccccc5)C[C@@H]34)cc2)cc1", "activity change (Venus) (%)": "-75.34"}
{"compound": "C[C@H]1CCCCO[C@H](CN(C)C(=O)CCC(F)(F)F)[C@@H](C)CN([C@@H](C)CO)C(=O)c2cc(NC(=O)Nc3ccccc3)ccc2O1", "activity change (Venus) (%)": "-19.12"}
{"compound": "Cc1ccc(S(=O)(=O)Nc2ccc3c(c2)CC(=O)N([C@H](C)CO)C[C@H](C)[C@H](CN(C)Cc2ccccc2)O3)cc1", "activity change (Venus) (%)": "-30.62"}
{"compound": "C[C@@H]1CN([C@H](C)CO)S(=O)(=O)c2ccc(C#C[C@@H](C)O)cc2O[C@H]1CN(C)Cc1ccc(-c2ccccc2)cc1", "activity change (Venus) (%)": "-70.03"}
{"compound": "CCN(C[C@H]1N[C@H](CO)[C@@H]1c1ccc(-c2cccc(F)c2)cc1)C(=O)CN(C)C", "activity change (Venus) (%)": "-65.54"}
{"compound": "CO[C@H]1CN(C)C(=O)c2cc(NC(=O)Nc3ccc(Cl)cc3)ccc2OC[C@H](C)N(C)C[C@@H]1C", "activity change (Venus) (%)": "-38.02"}
{"compound": "O=C1CN(S(=O)(=O)Cc2ccccc2)C[C@H]2[C@H](c3ccc(C#Cc4cccc(F)c4)cc3)[C@H](CO)N12", "activity change (Venus) (%)": "-66.41"}
{"compound": "C[C@@H]1CN([C@@H](C)CO)C(=O)Cc2cc(NC(=O)CCC(F)(F)F)ccc2O[C@H]1CN(C)Cc1ccc(-c2ccccc2)cc1", "activity change (Venus) (%)": "-52.83"}
{"compound": "C[C@@H]1CN([C@@H](C)CO)C(=O)Cc2cc(NC(=O)Nc3ccc(F)cc3)ccc2O[C@@H]1CN(C)Cc1ccc(-c2ccccc2)cc1", "activity change (Venus) (%)": "-36.7"}
{"compound": "C[C@H]1CN([C@@H](C)CO)S(=O)(=O)c2ccc(C#Cc3ccncc3)cc2O[C@@H]1CN(C)C(=O)Nc1ccc2c(c1)OCO2", "activity change (Venus) (%)": "-79.01"}
{"compound": "COCC#Cc1ccc([C@H]2[C@@H](CO)N3CCCCN(S(=O)(=O)c4ccccc4C)C[C@H]23)cc1", "activity change (Venus) (%)": "-48.5"}
{"compound": "COc1ccc(C#Cc2ccc([C@H]3[C@@H](CO)N4C(=O)CN(C(=O)c5ccc(F)cc5)C[C@H]34)cc2)cc1", "activity change (Venus) (%)": "-71"}
{"compound": "C[C@@H]1CN([C@@H](C)CO)C(=O)Cc2cc(N(C)C)ccc2O[C@H]1CN(C)Cc1ccc(-c2ccccc2)cc1", "activity change (Venus) (%)": "-58.34"}
{"compound": "Cc1ccc(OC(=O)N(C)C[C@H]2OCc3ccccc3-c3c(n(C)c4ccccc34)C(=O)N([C@H](C)CO)C[C@H]2C)cc1", "activity change (Venus) (%)": "-48.2"}
{"compound": "C[C@@H]1CN([C@H](C)CO)C(=O)c2cc(NC(=O)c3ccccc3)ccc2O[C@@H](C)CCCCO[C@H]1CN(C)C(=O)Cc1ccccc1", "activity change (Venus) (%)": "-43.33"}
{"compound": "C[C@@H]1CN([C@@H](C)CO)C(=O)c2cccc(NC(=O)Nc3ccc(F)cc3)c2O[C@@H]1CN(C)Cc1ccc(C(F)(F)F)cc1", "activity change (Venus) (%)": "-27.63"}

Repeated from the top, 2 entries:

| compound | activity change (Venus) (%) |
|---|---|
| `COc1ccc(CN(C)C[C@H]2OCCCC[C@H](C)Oc3ccc(NC(=O)Nc4ccc(F)cc4)cc3C(=O)N([C@H](C)CO)C[C@H]2C)cc1` | -52.91 |
| `C[C@@H]1CN([C@@H](C)CO)S(=O)(=O)c2ccc(C#CC3CC3)cc2O[C@@H]1CN(C)Cc1ccncc1` | -53.66 |